Experimental findings from PMC3738497 are described below.

For assay [1], the target named is HA-tagged M50 expressed from MCMV-M50HA (murine cytomegalovirus (MCMV)). Briefly: co-IP; NIH-3T3 cells infected with MCMV-M50HA or MCMV-HAm41; after 24 h M50 and m41 precipitated with an anti-HA antibody; endogenous IRE1 detected with an IRE1-specific antibody.
The target of assay [2] is HA-tagged m41 expressed from MCMV-HAm41 (murine cytomegalovirus (MCMV)). The assay is described as above.

Results are given in words; binding and its absence hold for the method and conditions named. Binding seen in cells or lysates may run through a third protein. For some assays here: Binding calls can cover weak binding; strength is not graded here.

B1: endogenous IRE1 of NIH-3T3 cells (protein, UniProt Q9Z2E3 34-911)
chain: VRPESLLFVSTLDGSLHALNKQTGDLKWTVKDDPIIQGPMYVTEMAFLSDPADGSLYVLGTQKQQGLMKLPFTIPELVHASPCRSSDGVFYTGRKQDAWFVVDPESGETQMTLTTEGLSTPQLFIGRTQYTVSMHDLRTPALRWNTTYRRYSAPLLNGSPGKYMSHLTSCGMGLLLTVDPGSGIVLWTQDLGVPVTGIYTWHQDGLHQLPHLTLARDTLHFLVLRWGHIRLPASSYQDTATQFSSLDTQLLMTLYVGKEEAGFYVSKALVHAGVALVPRGLTLAPMDGPTTDEVTLQVSGEREGSPSTAVRYPSGSVALPSQWLLIGYHEPPPVLHTTMLRVHPIPGKVSAETRASEDLHAPPVFFELLNLRREDPELHPEEKASDSYPGLGSQDLLAATFTAILLGAWVLYLMRQQQQSPSAPAGPPDLSQDAQGQLSRDILQDQRRFQSPSEPAQPPHDPEAGQPTVVGKISFNPKDVLGRGAGGTFVFRGQFEGRAVAVKRLLRECFGLVRREVQLLQESDRHPNVLRYFCTEHGPQFHYIALELCQASLQEYVESPDLDRWGLEPTTVLQQMMSGLAHLHSLHIVHRDLKPANILMAGPDSQGQGRVVISDFGLCKKLPVGRCSFSLHSGIPGTEGWMAPELLQLPPDSPTSAVDIFSAGCVFYYVLSGGSHPFGESLYRQANILSGDPCLAQLQEETHDKVVALDLVRAMLSLLPQDRPSAGWVLAHPLFWSRAKELQFFQDVSDWLEKEPDQGPLVSALEAGSYKVVREDWHKHISAPLQADLKRFRSYKGTSVRDLLRAMRNKKHHYRELPAEVRQTLGQLPAGFIQYFTQRFPRLLLHTHRAMRTCASESLFLPYYPPALEARRPDATKS
As for B1, the binding result in assay [1] is recorded as “binds”; in assay [2], “no binding”.
